# Results of single-concentration screens

Data taken from ChEMBL document CHEMBL3988442, “University of Dundee, Small-Polar-MMV Screening Library” (2021).

Mtb cholesterol medium: 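Growth of Mycobacterium tuberculosis over 4 days (cholesterol / DPPC medium with tyloxapol); the read-out is not stated. Tested at 50 µM. The record gives no direction; compounds that gave an IC50 in retests scored well above the rest, so higher reads as more growth inhibition. About 69,000 compounds were tested under these conditions; 0.54% (about 370) showed 50% or more at least once.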
Mtb glucose medium: 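Whole-cell growth test on Mycobacterium tuberculosis, read after 3 days in glucose-containing 7H9 medium; the read-out is not stated. Concentration: 50 µM. Higher reads as more growth inhibition (inferred: compounds with an IC50 in retests scored well above the rest). Size under these conditions: about 69,000 compounds, about 760 of them at 50% or above in at least one test.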

Each number is a percent effect as filed. How 0% and 100% were set is not recorded. Most values in the screen are low, and negative values occur. The compounds are a random part of those screened. Two or more numbers in one place are separate tests of the same structure; such repeats can differ widely.

structure	Mtb cholesterol medium	Mtb glucose medium
COc1ccc(Oc2ncccc2NC(=O)N2CC[C@H](O)C2)cc1	6.021	-25.94
O=C(O)C(F)(F)F.O=C(O)C(F)(F)F.[H][C@@]12CCCO[C@]1([H])[C@H](NC(=O)c1ccncc1)CN(c1ncccn1)C2	-33.83	-4.195 and 2.633
CCn1cc(CN2CCC(c3ccncc3)CC2)cc1C#N	-15.42	4.514
CCN(CC(=O)NCCc1nc(C)no1)Cc1ccc(Cl)cc1	-9.691	-4.298
COc1ccc(-n2cnc(Cl)c2CO)cc1	-5.609 and -10.19	-12.74
CCn1c(C)nnc1SCCNc1nc(C)nc2c1cnn2C	-11.57	-2.193 and -26.72
Cc1cccn2c(NC(C)(C)C)c(C3CCN(C(=O)C4CC4)CC3)nc12	9.253 and -0.549	7.166
Cc1ccsc1C(=O)NC1CCN(c2cnn(C)c2)C1=O (centres unmarked)	8.422	3.637 and -26.68
CC(C)NC(=O)c1cccc(NC(=O)CCCc2nc(C(C)C)no2)c1	-3.577	6.693
Cc1occc1C(=O)N1CCC2(CC1)CC(c1cccnc1)C(=O)N2C (centres unmarked)	17.83	20.52
Cc1n[nH]c(C)c1CNCC(O)c1ccc(F)c(F)c1 (centres unmarked)	-6.583	-12.07 and -4.518
Cc1ccc(-n2nnc(CC(=O)N3CCOCC3)c2C)cc1	-7.697	10.45
COc1ccc(CN2CCCCC2CNC(=O)OC(C)(C)C)cc1F (centres unmarked)	20.87	15.72
O=C(c1ccc2c(c1)CCC2)N1C[C@@H](CN2CCOCC2)[C@@H](CO)C1	9.563	4.156
CCn1nc2c(cc1=O)CN(Cc1nc(N)c3ccccc3n1)CC2	-3.813	-17.93 and -3.85
CN(CCCNC(=O)c1cccc(OCC(N)=O)c1)CC(F)(F)F	-3.528	12.62
CCC(=O)Nc1ncn(Cc2cccnc2)n1	-22.38	-18.65
O=C(NCc1ccco1)N1CCCCC1c1nc(-c2ccncc2)no1 (centres unmarked)	-9.036	5.225
COCCC1COC2(CCN(C(=O)Cc3ccccc3)CC2)C1 (centres unmarked)	-12.88 and 8.15	-4.381
Cc1cc(C)c(CNC(=O)N2CCN(c3nccs3)CC2)c(=O)[nH]1	-20.74	-17.05
CC(C)n1nc2c(cc1=O)CN(Cc1nc(-c3ccco3)no1)CC2	-4.865	-5.039
O=C(O)C(F)(F)F.[H][C@@]12C[C@H](C(=O)NC)CN(CC3CCOCC3)[C@]1([H])CCO2	0.4383	-5.349 and 8.099
COc1ccc(OC)c(C2C3=C(COC3=O)Nc3[nH]nc(C)c32)c1 (centres unmarked)	-10.41	-2.9
CCc1ccsc1C(=O)N(C)CCc1ccncc1	1.785	9.021
Cc1cc(S(=O)(=O)N2CCC(S(C)(=O)=O)C2)ccc1F (centres unmarked)	12.85	-5.346
CCN(CC1CCOC1)S(=O)(=O)Cc1cc(Cl)ccc1OC (centres unmarked)	4.584	-10.95
CN1CCCN(C[C@@H]2CN(C(=O)CC3CCC3)C[C@@H]2CO)CC1	13.35	-12.71
CCc1cc(CN(C)C(=O)C2CC(=O)N(c3cccc(O)c3)C2)on1 (centres unmarked)	-2.78 and -4.33	3.141
COCCN(CCOC)C(=O)NC1CCCCC1	-8.885	-1.749
CN(C)C(C(=O)NCC1(O)CCCCC1)c1cccc(F)c1 (centres unmarked)	-6.771	19.61
CCOc1cc(C(=O)N2CCCC(c3noc(C(C)C)n3)C2)ccn1 (centres unmarked)	-2.443	-30.36
CCOc1cccc2c1OCC(=O)N(c1ccc3c(c1)OCCO3)C2	8.135	5.644
O=C(Nc1ccc(Br)cc1F)c1cc(CN2CCOCC2)on1	-15.46	-5.85
COc1ncc(C(F)(F)F)c(C(=O)O)c1Cl	-49.36	-36.97 and -7.818
CCOc1cccc(CNc2cccc(C(=O)OC)c2)c1O	-5.983	-0.5604
[H][C@@]12OCCN(CCOC)[C@@]1([H])CC[C@H]2OCc1cccc(C)n1	9.34	-7.163 and 16.36
COc1ccsc1C(=O)N1CCCC1c1c(C)nn(C)c1OC (centres unmarked)	0.2084 and -12.19	-17.66
Cc1noc(C)c1CC(=O)OCC(=O)N1CCc2sccc2C1	-12.35	6.601
CC(C)C(C)N(C)Cc1nnc(-c2ccco2)o1 (centres unmarked)	25.11	36.34 and 44.17
C=C1c2ccccc2C(=O)N1CCC(=O)N1CCNC(=O)C1	-29.77	-16.17
Cc1ccc(-c2ncc(C(=O)NCCNC(=O)C(C)C)s2)c(C)c1	-13.63	10.02
CCN(CC1CCOC1)C(=O)Cn1nnn(-c2cccs2)c1=O (centres unmarked)	-0.2402	1.992 and -0.611
CSCC[C@H](N)C(=O)NCc1cc2n(n1)CCCN(C(=O)C1CCC1)C2	-12.95	5.783 and -1.124
NC(=O)c1ccc(CN2CCCC(N3CCCCCC3)C2)cc1 (centres unmarked)	-12.3	25.95
CC(c1nncn1C)n1cc(-c2cc(CN3CCCC3)cs2)nn1 (centres unmarked)	-22.95 and -3.568	9.451
CC(C)n1cnc2c1C(C(=O)N1CCCC1)N(CC1CC1)CC2.O=C(O)C(F)(F)F (centres unmarked)	-0.5416	-23.04 and 3.695
[H][C@]12CC[C@@]3(N=C(C)N(CCOC)C3=O)[C@@]1([H])CN(C(=O)NC1CCCC1)C2	18.75	17.73
COCc1cn(C2CCN(C(=O)c3ccc(F)c(C)c3)CC2)nn1	-13.13	16.7
Cn1ccnc1C(=O)N1CCC2(CCCN2CC2CC2)CC1.O=C(O)C(F)(F)F	3.015	16.02 and -0.06375
[H][C@]12CN(Cc3ccc(OC)cc3)C(=O)[C@@]1([H])CN(c1ncc(CC)cn1)C2	-5.498	30.03 and 31.24

The last 6 entries again:

| structure | Mtb cholesterol medium | Mtb glucose medium |
|---|---|---|
| `CC(c1nncn1C)n1cc(-c2cc(CN3CCCC3)cs2)nn1` (centres unmarked) | -22.95 and -3.568 | 9.451 |
| `CC(C)n1cnc2c1C(C(=O)N1CCCC1)N(CC1CC1)CC2.O=C(O)C(F)(F)F` (centres unmarked) | -0.5416 | -23.04 and 3.695 |
| `[H][C@]12CC[C@@]3(N=C(C)N(CCOC)C3=O)[C@@]1([H])CN(C(=O)NC1CCCC1)C2` | 18.75 | 17.73 |
| `COCc1cn(C2CCN(C(=O)c3ccc(F)c(C)c3)CC2)nn1` | -13.13 | 16.7 |
| `Cn1ccnc1C(=O)N1CCC2(CCCN2CC2CC2)CC1.O=C(O)C(F)(F)F` | 3.015 | 16.02 and -0.06375 |
| `[H][C@]12CN(Cc3ccc(OC)cc3)C(=O)[C@@]1([H])CN(c1ncc(CC)cn1)C2` | -5.498 | 30.03 and 31.24 |